The structures given here were assigned with low confidence; some may be wrong.
Tests used:
CXCR3 [1] = biological target: T1, CXCR3 (Homo sapiens, UniProt P49682); assay: Chemotaxis assay IP10, L1.2 recombinant cells expressing hCXCR3; details: read-out: L1.2 chemotaxis IC50 (μM) IP10; L1.2 hCXCR3 cells, IP10 around 0.3 nM, 4 hours
CXCR3 [2] = biological target: T1, CXCR3; assay: Chemotaxis assay ITAC (CXCL11), L1.2-CXCR3 cells; details: read-out: Chemotaxis/ITAC, 1 nM CXCL11 (I-TAC), 4 hours
CXCR3 [3] = biological target: T1, CXCR3; assay: CXCR3 Ca2+ mobilization (FLIPR), stable hCXCR3-CHO cell line, I-TAC stimulated; details: read-out: Ca-ITAC; hCXCR3-CHO cells, I-TAC 100 nM stimulated Ca2+ response

By UniProt entry, the sequences of proteins in these tests, tags left out.
UniProt P49682, whole entry: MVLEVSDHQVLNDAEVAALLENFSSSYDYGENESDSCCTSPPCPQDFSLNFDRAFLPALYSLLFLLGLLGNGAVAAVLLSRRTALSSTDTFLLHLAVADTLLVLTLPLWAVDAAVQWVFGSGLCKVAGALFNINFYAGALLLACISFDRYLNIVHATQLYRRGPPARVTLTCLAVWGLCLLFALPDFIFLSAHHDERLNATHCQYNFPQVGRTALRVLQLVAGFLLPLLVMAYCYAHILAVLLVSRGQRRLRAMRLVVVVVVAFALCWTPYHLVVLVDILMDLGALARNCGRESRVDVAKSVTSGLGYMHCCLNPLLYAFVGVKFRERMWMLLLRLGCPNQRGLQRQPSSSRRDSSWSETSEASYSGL

IC50 (CXCR3 [1])	IC50 (CXCR3 [2])	IC50 (CXCR3 [3])	SMILES
0.05 µM	170 nM	30 nM	CCOc1ccc(S(=O)(=O)N(Cc2ccc(C(=O)NCC(O)c3ccccc3)cc2)Cc2cccnc2)cc1 (stereo not shown)
–	–	1900 nM	CCOc1ccc(S(=O)(=O)N(Cc2ccc(C(=O)NCCc3cccc(Cl)c3)cc2)Cc2cccnc2)cc1

Source: patent publication US20110028509A1, “Sulfonamides” (MERCK SERONO SA, priority 2008, published 2011)
